Library screening results

From ChEMBL document CHEMBL3988442, “University of Dundee, Small-Polar-MMV Screening Library” (2021).

Each number is a percent effect as filed. How 0% and 100% were set is not recorded. Most values in the screen are low, and negative values occur. This is an unselected part of the compounds tested.

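Whole-cell assay for inhibitors of Mycobacterium tuberculosis growth, labelled Cornell in the record; the read-out is not stated. The concentration is filed as 10 mM, unlikely as a test dose, so the dose is not known. Higher means stronger inhibition (inferred from two other growth screens of the library). About 53,000 compounds were tested under these conditions; 1.7% (about 900) showed 50% or more at least once.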

{"smiles": "CCc1nc2n(n1)CC(NCc1cnc(N(CC)CC)s1)CC2", "stereo": "centres undefined", "effect": 13.68}
{"smiles": "CC(=O)N1CCCc2ccc(S(=O)(=O)N3CCCCC3C)cc21", "stereo": "centres undefined", "effect": 10.67}
{"smiles": "O=C(NCCN1CCCCCC1=O)Nc1cccnc1-n1cccn1", "effect": 12.32}
{"smiles": "COCC1CN(C(=O)Nc2cc(Cl)cc(Cl)c2)CCO1", "stereo": "centres undefined", "effect": 13.66}
{"smiles": "[H][C@@]12CCN(Cc3nccs3)C[C@]1([H])O[C@@H](C(=O)NCC1CC1)C2", "effect": 0.8243}
{"smiles": "CCCc1ccc(S(=O)(=O)NC2(CC(N)=O)CCC2)cc1", "effect": 27.07}
{"smiles": "Cc1nsc(NC2CCN(c3ccccc3OC(F)F)C2=O)n1", "stereo": "centres undefined", "effect": 7.467}
{"smiles": "CCc1ccccc1-c1cc(C)nc(N)n1", "effect": 13.97}
{"smiles": "CNC(=O)[C@@H]1C[C@@H](N)CN1c1nnc(-c2ccccc2)s1", "effect": 19.4}
{"smiles": "O=C(O)C(F)(F)F.O=C(O)C(F)(F)F.[H][C@]12C[C@@H](CN3CCCC3)N(c3nccs3)[C@@]1([H])CCN(C(=O)CC)C2", "effect": 16.4}
{"smiles": "Cn1cc(C(C)(O)CNC(=O)c2cc(Br)cn2C)cn1", "stereo": "centres undefined", "effect": 19.54}
{"smiles": "CN1CCC(NC(=O)CC2CN(Cc3ccccc3)CCO2)CC1", "stereo": "centres undefined", "effect": -10.19}
{"smiles": "Cn1ncc2c(=O)[nH]c(CN3CCC(Cc4ccccc4)CC3)nc21", "effect": 4.205}
{"smiles": "COc1ccc(CNCC2CNc3ccnn3C2)cn1", "stereo": "centres undefined", "effect": -61.27}
{"smiles": "c1ccc(Cc2nnc(CN3CCCCC3Cn3cncn3)o2)cc1", "stereo": "centres undefined", "effect": -33.61}
{"smiles": "O=C1CCC(=O)N1CCOc1nc(-c2ccccc2Cl)no1", "effect": 8.319}
{"smiles": "CC(C)N(C)Cc1nnc2n1CCN(S(=O)(=O)C1CC1)CC2.O=C(O)C(F)(F)F", "effect": 2.698}
{"smiles": "CN1CCN(Cc2ccco2)Cc2cccnc21", "effect": 7.225}
{"smiles": "CCCN1CCC(C(=O)NCCN(CC)c2ccccc2C)CC1", "effect": -25.93}
{"smiles": "COC(=O)c1cccc(C(=O)N2CCCC(n3cncn3)C2)c1", "stereo": "centres undefined", "effect": 14.24}
{"smiles": "CCc1nnc2n1CCN(C(=O)c1csc(-c3cnn(C)c3)n1)C2", "effect": -54.97}
{"smiles": "COCC(O)CN(C)C(=O)NCc1ccc(S(C)(=O)=O)cc1", "stereo": "centres undefined", "effect": 3.751}
{"smiles": "COc1ccccc1N1CCN(c2nc(N)nc3[nH]cnc23)CC1", "effect": 17.52}
{"smiles": "CCCOCC(=O)NC1CCc2nc(C)cn2C1", "stereo": "centres undefined", "effect": -17.08}
{"smiles": "CC(C)C1CN(C(=O)c2cc(=O)[nH]c(=O)[nH]2)CCC(=O)N1CC1CC1", "stereo": "centres undefined", "effect": 17.61}
{"smiles": "O=C(O)C(F)(F)F.O=C(O)C(F)(F)F.c1cncc(-c2ccc3c(c2)CCC32CCN(Cc3nccs3)CC2)c1", "effect": 61.89}
{"smiles": "NCc1cn(CC2CCCN(C(=O)NCCc3ccc(F)cc3)C2)nn1", "stereo": "centres undefined", "effect": -10.26}
{"smiles": "CN1CCC(Oc2ccc(NC(=O)c3ccccc3Br)cc2)CC1", "effect": 23.35}
{"smiles": "[H][C@@]12CN(Cc3cccnc3)CCO[C@]1([H])CN(C(=O)c1ccncn1)C2", "effect": 14.67}
{"smiles": "Cc1oc(C(=O)O)cc1S(=O)(=O)Nc1cc(Br)ccc1F", "effect": -11.96}
{"smiles": "NS(=O)(=O)c1ccc(C(=O)N2CCCC2c2ccccc2)o1", "stereo": "centres undefined", "effect": -3.803}
{"smiles": "CC(NC(=O)c1cccs1)C(=O)NS(=O)(=O)c1ccc(C#N)cc1", "stereo": "centres undefined", "effect": -22.3}
{"smiles": "O=C(NCc1ccon1)N1CCC(n2ccc(C(F)(F)F)n2)CC1", "effect": 13.22}
{"smiles": "COCC(=O)N1CCCC1c1nc(C)c2c(n1)N(CC(C)C)C(=O)CC2", "stereo": "centres undefined", "effect": 14.06}
{"smiles": "Cn1ncc2c(N[C@H]3CCCC[C@@H]3O)nc(C(C)(C)C)nc21", "effect": 29.32}
{"smiles": "CC1CCCN(Cc2c(C3CC3)n(CC(=O)N(C)C)c3ncccc23)C1.Cl", "stereo": "centres undefined", "effect": -28.4}
{"smiles": "CCC(O)CN1CCN(C(=O)c2cccc3c2OCC(=O)N3)CC1", "stereo": "centres undefined", "effect": 10.14}
{"smiles": "CC(C)n1cnnc1C1CCCN(S(=O)(=O)CC2CCCC2)C1", "stereo": "centres undefined", "effect": -4.086}
{"smiles": "[H][C@@]12C[C@H](C(=O)NCc3cccnc3)[C@@]([H])(CN(CC(C)C)C1)O2", "effect": 6.318}
{"smiles": "Cc1cc(C[C@@H]2COC[C@H]2NCc2ccc(Cl)c(Cl)c2)on1.O=C(O)CC(O)(CC(=O)O)C(=O)O", "effect": -37.81}
{"smiles": "C=C(C)COc1ccc(C(=O)NCC2CC(CC)=NO2)cc1", "stereo": "centres undefined", "effect": 36.82}
{"smiles": "[H][C@@]12CN(C(=O)CCOC)C[C@]1([H])C(=O)N(Cc1cccc(C)c1)C2", "effect": -12.29}
{"smiles": "Cc1cc(NC(=O)N2CCCC2C(C)(C)O)c2ncccc2c1", "stereo": "centres undefined", "effect": 20.11}
{"smiles": "CCn1ncc2c1C(COC)CN(Cc1ccc(OC)cc1)C2", "stereo": "centres undefined", "effect": -5.071}
{"smiles": "CN(C)CCOCc1cncc2c1CCN(C(=O)c1cscn1)C2", "effect": -10.27}
{"smiles": "O=C(c1ccccc1)N1CCN(CC2CCOc3ccccc3C2)CC1", "stereo": "centres undefined", "effect": 13.29}
{"smiles": "Cc1nc(NC2CCN(C(=O)C3CC3)CC2)c2cnn(C)c2n1", "effect": 35.4}
{"smiles": "[H][C@]12CCC[C@@]1(COC)CN(C(=O)CCOC)C2", "effect": 6.835}
{"smiles": "CC(C)N1CCN(CCn2cnc3c(F)cccc3c2=O)CC1", "effect": -51}
{"smiles": "CN(CCN1CCOCC1)C(=O)CCc1cccc(Cl)c1", "effect": -8.78}

4 of the entries, repeated:

* Cn1ncc2c(=O)[nH]c(CN3CCC(Cc4ccccc4)CC3)nc21 | 4.205%
* CC(C)N(C)Cc1nnc2n1CCN(S(=O)(=O)C1CC1)CC2.O=C(O)C(F)(F)F | 2.698%
* CC1CCCN(Cc2c(C3CC3)n(CC(=O)N(C)C)c3ncccc23)C1.Cl (centres undefined) | -28.4%
* CCc1ccccc1-c1cc(C)nc(N)n1 | 13.97%